Record: PubChem BioAssay AID504744 (Drosophila RNAi Screening Center, 2011)

Aim: 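Find genes whose loss alters insulin-driven dAkt phosphorylation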 (primary screen)
System: Drosophila Kc167 cells
Reagent: long dsRNA against Drosophila genes, 250 ng dsRNA per well of a 384-well plate
Timing: 3 days of knock-down, then overnight serum-free starvation before stimulation
Challenge: bovine insulin at 387 nM for 10 minutes after 12 h without serum
Read-out: 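In-cell antibody fluorescence for phospho-dAkt in each well over DNA-dye signal, with log2 residuals expressed as z-scores adjusted for cell count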
Rule for the call: 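Hit in the insulin screen when the two-replicate mean z-score is more extreme than plus or minus 2.5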
In all, the deposit lists about 23,000 reagents; below is an unselected part of those with a known target gene and a result. Of all reagents, 98 (0.43%) got an active call. 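Only hit calls are given; the phospho-dAkt signals, z-scores and hit direction were not deposited.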 A plus sign joins genes that one reagent is predicted to hit.

target gene	DRSC id	call
CG10628	DRSC02080	inactive
CG34169	DRSC01579	inactive
slv	DRSC07685	inactive
CG33331 + CG33332	DRSC22928	inactive
Zwilch	DRSC15376	inactive
CG17362	DRSC10267	inactive
CG13060	DRSC09943	inactive
CG31139	DRSC21393	inactive
RhoGAP18B	DRSC19763	inactive
RhoGAP18B	DRSC20047	inactive
RhoGAP18B	DRSC20048	inactive
RhoGAP18B	DRSC20049	inactive
SamDC	DRSC03429	inactive
CG17364	DRSC10269	inactive
CG17364	DRSC10270	inactive
CG17364	DRSC22689	inactive
ppk16	DRSC02736	inactive
CG13126	DRSC02222	inactive
Hsp70Aa + Hsp70Ab	DRSC21246	inactive
CG2993	DRSC14284	inactive
CG2993	DRSC15457	inactive
ms(3)K81	DRSC14746	inactive
CG31360	DRSC13255	inactive
CG9743	DRSC16552	inactive
Mal-A7	DRSC06077	inactive
CG9981	DRSC20225	inactive
CG32371	DRSC22209	inactive
mRpL41	DRSC06257	inactive
CG14711 + Zaf1	DRSC14934	inactive
CG2310	DRSC15438	inactive
DptA	DRSC07404	inactive
CG11231 (retired record)	DRSC17207	inactive
CG42715 (retired record)	DRSC05499	inactive
Prosbeta5	DRSC07517	inactive
CG5731	DRSC02883	inactive
Obp49a	DRSC22562	inactive
CG15475	DRSC02486	inactive
dany	DRSC04141	inactive
PIG-F	DRSC11069	inactive
Itgbn	DRSC03493	inactive
l(2)k05911	DRSC02523	inactive
CheB98a	DRSC14882	inactive
vsg	DRSC10219	inactive
CG3347	DRSC00597	inactive
Vha100-4	DRSC16282	inactive
CG32733 (retired record) + CG32797	DRSC17705	inactive
Gr93a	DRSC14593	inactive
CG17717	DRSC18130	inactive
pre-mod(mdg4)-U + mod(mdg4)	DRSC13476	inactive
Elba3	DRSC00469	inactive
brm	DRSC11330	inactive
Erasp	DRSC07111	inactive
CG34260 + cmpy	DRSC11701	inactive
HERC2	DRSC20566	inactive
snRNA:U1:95Cc	DRSC13640	inactive
CG30083	DRSC05572	inactive
Fbp1	DRSC11166	inactive
CG5114	DRSC10482	inactive
CG4476	DRSC10424	inactive
Tsp42El	DRSC06186	inactive
CG44838	DRSC10330	inactive
CG44838	DRSC10371	inactive
Debcl	DRSC04965	inactive
CG7741	DRSC07035	inactive

Part of the list above in another layout:
target gene | DRSC id | call
CG30083 | DRSC05572 | inactive
Fbp1 | DRSC11166 | inactive
CG5114 | DRSC10482 | inactive
CG4476 | DRSC10424 | inactive
Tsp42El | DRSC06186 | inactive
